PubChem BioAssay AID602196, INSERM | 2012
Screen: 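Modifiers of cisplatin sensitivity in A549 cells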. Cells: human A549 lung cancer cells. Reagent: siRNA pair against human genes. Duration: 48 h transfection before cisplatin; time from cisplatin to read-out not stated. Challenge: cisplatin at a dose killing half of control-siRNA cells; exact dose and duration not given. Measurement: 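Cisplatin cell death as a shift from the 50% death seen with control siRNA; siRNAs toxic or growth-blocking alone scored 0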. Reading the numbers: two-siRNA summed score (-2 to +2): higher = both siRNAs protect from cisplatin killing; -2 means both sensitise; mean protection from cisplatin (shift in death) and protection from cisplatin (shift in death), siRNA C and protection from cisplatin (shift in death), siRNA D: higher = protection from cisplatin killing. Call rule: 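siRNAs harmful alone (LDH or WST-1) get 0; others get +1 for less and -1 for more cisplatin killing; genes are active when the two siRNAs give the same sign, summing to ±2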. Meaning of the calls: active = both siRNAs shift cisplatin killing the same way; inactive = no consistent shift, or siRNA harmful alone.
In all, the deposit lists about 23,000 reagents; this is an unselected part. 455 of all reagents (2%) were called active. 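Active includes both protection and sensitisation; some change values fall well beyond the stated -50 to +50 range.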 Not given: the amount of reagent.

| gene | two-siRNA summed score (-2 to +2) | mean protection from cisplatin (shift in death) (%) | protection from cisplatin (shift in death), siRNA C (%) | protection from cisplatin (shift in death), siRNA D (%) | call |
| --- | --- | --- | --- | --- | --- |
| TEX29 | 0 | 2.1 | 4.4 | -0.1 | inactive |
| GASAL1 | 0 | 6.6 | 9.6 | 3.5 | inactive |
| OR51F1 | 0 | 0.1 | -3.3 | 3.5 | inactive |
| CFC1 | -1 | -10.6 | -18.8 | -2.4 | inactive |
| ARRB1 | 1 | 10.2 | -1 | 21.5 | inactive |
| KRT14 | 0 | 30.3 | 23.4 | 37.1 | inactive |
| SELL | 0 | -0.5 | -7.8 | 6.8 | inactive |
| ULBP1 | 0 | -0.2 | 4 | -4.5 | inactive |
| OR52W1 | 1 | 5.9 | -12.6 | 24.5 | inactive |
| FCER1G | 0 | -2.4 | 1 | -5.9 | inactive |
| LINC00523 | 0 | 1.3 | -8.1 | 10.8 | inactive |
| LOC149224 | 1 | 26.5 | 21.9 | 31.1 | inactive |
| RTN2 | 0 | 0.9 | 6.1 | -4.3 | inactive |
| SPRR2D | 0 | 4.4 | 9.8 | -1.1 | inactive |
| LOC441481 | 0 | 10.9 | -2.7 | 24.6 | inactive |
| HOXA7 | -1 | -16.5 | -22.7 | -10.4 | inactive |
| LOC203069 | 0 | 10.7 | -7.7 | 29 | inactive |
| PFDN4 | 0 | 7.8 | 7.6 | 8 | inactive |
| KIAA1613 | 0 | -19.4 | -27.1 | -11.7 | inactive |
| WSB1 | 0 | -0.8 | -7.2 | 5.5 | inactive |
| MCEMP1 | 0 | -11 | -17.8 | -4.3 | inactive |
| ARAF | 1 | 15.4 | 11.5 | 19.4 | inactive |
| LOC391130 | 0 | -9.4 | -19.8 | 1 | inactive |
| ARHGEF18 | 0 | 10.4 | 17.8 | 3 | inactive |
| KRTAP10-8 | 0 | 11.6 | 6.5 | 16.8 | inactive |
| LOC401307 | 0 | 2.2 | 7.2 | -2.8 | inactive |
| SLC7A11 | -1 | -27.4 | -13.5 | -41.3 | inactive |
| NSMF | 0 | -17.4 | -3.5 | -31.3 | inactive |
| MAPKAPK3 | 0 | 5 | -10.1 | 20.1 | inactive |
| CHST3 | 0 | 2.1 | 17.1 | -13 | inactive |
| SLC10A5 | -1 | -6.6 | 6.7 | -19.9 | inactive |
| LOC341315 | 0 | 12.5 | -1.7 | 26.7 | inactive |
| CCR10 | -1 | -2.3 | 10.6 | -15.1 | inactive |

Part of the list above, reformatted.
OR52W1 | two-siRNA summed score (-2 to +2) = 1; mean protection from cisplatin (shift in death) (%) = 5.9; protection from cisplatin (shift in death), siRNA C (%) = -12.6; protection from cisplatin (shift in death), siRNA D (%) = 24.5; call = inactive
FCER1G | two-siRNA summed score (-2 to +2) = 0; mean protection from cisplatin (shift in death) (%) = -2.4; protection from cisplatin (shift in death), siRNA C (%) = 1; protection from cisplatin (shift in death), siRNA D (%) = -5.9; call = inactive
LINC00523 | two-siRNA summed score (-2 to +2) = 0; mean protection from cisplatin (shift in death) (%) = 1.3; protection from cisplatin (shift in death), siRNA C (%) = -8.1; protection from cisplatin (shift in death), siRNA D (%) = 10.8; call = inactive
LOC149224 | two-siRNA summed score (-2 to +2) = 1; mean protection from cisplatin (shift in death) (%) = 26.5; protection from cisplatin (shift in death), siRNA C (%) = 21.9; protection from cisplatin (shift in death), siRNA D (%) = 31.1; call = inactive
RTN2 | two-siRNA summed score (-2 to +2) = 0; mean protection from cisplatin (shift in death) (%) = 0.9; protection from cisplatin (shift in death), siRNA C (%) = 6.1; protection from cisplatin (shift in death), siRNA D (%) = -4.3; call = inactive
SPRR2D | two-siRNA summed score (-2 to +2) = 0; mean protection from cisplatin (shift in death) (%) = 4.4; protection from cisplatin (shift in death), siRNA C (%) = 9.8; protection from cisplatin (shift in death), siRNA D (%) = -1.1; call = inactive
LOC441481 | two-siRNA summed score (-2 to +2) = 0; mean protection from cisplatin (shift in death) (%) = 10.9; protection from cisplatin (shift in death), siRNA C (%) = -2.7; protection from cisplatin (shift in death), siRNA D (%) = 24.6; call = inactive
HOXA7 | two-siRNA summed score (-2 to +2) = -1; mean protection from cisplatin (shift in death) (%) = -16.5; protection from cisplatin (shift in death), siRNA C (%) = -22.7; protection from cisplatin (shift in death), siRNA D (%) = -10.4; call = inactive
LOC203069 | two-siRNA summed score (-2 to +2) = 0; mean protection from cisplatin (shift in death) (%) = 10.7; protection from cisplatin (shift in death), siRNA C (%) = -7.7; protection from cisplatin (shift in death), siRNA D (%) = 29; call = inactive
PFDN4 | two-siRNA summed score (-2 to +2) = 0; mean protection from cisplatin (shift in death) (%) = 7.8; protection from cisplatin (shift in death), siRNA C (%) = 7.6; protection from cisplatin (shift in death), siRNA D (%) = 8; call = inactive
KIAA1613 | two-siRNA summed score (-2 to +2) = 0; mean protection from cisplatin (shift in death) (%) = -19.4; protection from cisplatin (shift in death), siRNA C (%) = -27.1; protection from cisplatin (shift in death), siRNA D (%) = -11.7; call = inactive
WSB1 | two-siRNA summed score (-2 to +2) = 0; mean protection from cisplatin (shift in death) (%) = -0.8; protection from cisplatin (shift in death), siRNA C (%) = -7.2; protection from cisplatin (shift in death), siRNA D (%) = 5.5; call = inactive

The listing continues.
| gene | two-siRNA summed score (-2 to +2) | mean protection from cisplatin (shift in death) (%) | protection from cisplatin (shift in death), siRNA C (%) | protection from cisplatin (shift in death), siRNA D (%) | call |
| --- | --- | --- | --- | --- | --- |
| ARL1 | 0 | 1.8 | -1.6 | 5.2 | inactive |
| LOC391840 | -1 | -5.7 | 8.9 | -20.3 | inactive |
| GUSBP4 | 1 | 16.8 | 15.8 | 17.8 | inactive |
| LOC389707 | 0 | 16.1 | 23.3 | 8.9 | inactive |
| MTCH2 | 0 | -4.1 | -13.1 | 4.9 | inactive |
| MACROD2 | 0 | 1.8 | -3.5 | 7 | inactive |
| LOC441069 | 0 | 14.2 | 10.2 | 18.3 | inactive |
| LOC442273 | 1 | 21.5 | 14.4 | 28.6 | inactive |
| LOC388947 | 0 | -4 | -16.8 | 8.7 | inactive |
| LOC441073 | 1 | 29.2 | 25.4 | 33 | inactive |
| PITHD1 | 0 | 6.8 | 4.8 | 8.9 | inactive |
| DCX | 0 | -3.2 | 1.8 | -8.2 | inactive |
| LOC400092 | 0 | -2.4 | 2 | -6.8 | inactive |
| ATP6V0D2 | -1 | -6.7 | -7 | -6.4 | inactive |
| HS6ST2 | 1 | 7.6 | 13.3 | 2 | inactive |
| LOC440313 | 0 | 0.2 | 4.2 | -3.8 | inactive |
| USP7P1 | 0 | 10.3 | 11.8 | 8.9 | inactive |
| SLC1A6 | 0 | 10.8 | 10 | 11.6 | inactive |
| JAM3 | 1 | 25.9 | 45.1 | 6.7 | inactive |
| NIPA1 | 1 | 21 | 16.9 | 25 | inactive |
| LOC441023 | 0 | 7.4 | 7.5 | 7.4 | inactive |
| DALRD3 | 0 | -2.2 | 7 | -11.4 | inactive |
| TSC1 | 0 | 23.3 | 43.1 | 3.6 | inactive |
| LOC440338 | 0 | 9.1 | 13.6 | 4.6 | inactive |
| DGAT2-DT | 1 | 12.1 | 19.6 | 4.5 | inactive |
| FIGN | 0 | 7 | 9.4 | 4.6 | inactive |
| DEPTOR | 0 | -6.8 | -14 | 0.4 | inactive |
| COX16 | 0 | 2.3 | 2.2 | 2.3 | inactive |
| AHI1 | 0 | 1.6 | 5.1 | -1.9 | inactive |
| DNM3 | 0 | 12.5 | 11.1 | 13.9 | inactive |
| SRSF5 | 1 | 18 | 20.4 | 15.7 | inactive |
| MRAP | 0 | 1.1 | -6.7 | 8.8 | inactive |
| MRPL11 | 0 | 7.6 | 7.6 | 7.6 | inactive |
| FAM241A | 0 | 7.8 | 2.2 | 13.5 | inactive |
| MLANA | 0 | -1.7 | -10.7 | 7.2 | inactive |
| OTULIN | 0 | 5.8 | 8.2 | 3.5 | inactive |
| TMEM132D | 0 | -3.2 | -0.1 | -6.3 | inactive |
| TMEM165 | -1 | 1.5 | 16 | -13 | inactive |
| ALPP | 1 | 12.2 | 20 | 4.4 | inactive |
| PRM1 | 0 | 13.8 | 17.7 | 9.9 | inactive |
